Results on 94 sequences are retold here after the supplement of paper PMC3334620.

Whole data set: some 33,000 sequences, median “E-score (-0.5 to 0.5)” near -0.0014, cut for the highest 2% near 0.25. The list shows a part of the results.

This experiment addresses T1, Cad1 (UniProt P24813).
T1 sequence: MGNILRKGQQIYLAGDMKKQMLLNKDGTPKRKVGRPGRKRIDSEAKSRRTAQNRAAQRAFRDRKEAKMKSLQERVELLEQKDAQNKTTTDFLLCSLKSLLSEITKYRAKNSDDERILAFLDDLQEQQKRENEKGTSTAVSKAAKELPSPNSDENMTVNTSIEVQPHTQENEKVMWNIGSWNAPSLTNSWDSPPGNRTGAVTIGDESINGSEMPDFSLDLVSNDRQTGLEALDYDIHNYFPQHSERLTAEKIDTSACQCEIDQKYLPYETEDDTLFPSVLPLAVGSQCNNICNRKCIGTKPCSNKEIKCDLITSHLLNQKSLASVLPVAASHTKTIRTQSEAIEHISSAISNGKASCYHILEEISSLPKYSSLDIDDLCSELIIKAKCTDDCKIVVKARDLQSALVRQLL
As to the kind of experiment: PBM E-score (8-mer binding enrichment) (E-score (-0.5 to 0.5)); higher = stronger / more preferred TF binding. Particulars: protein concentration: 100 nM; construct: GST-full length. The method, boiled down: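 PURExpress in vitro transcription/translation supplied GST-tagged yeast transcription factors, either full-length or DNA-binding domain. Applied at about 100-200 nM to universal all-10-mer Agilent arrays double-stranded by primer extension, the bound protein was detected with fluorescent anti-GST. E-scores, modified Wilcoxon-Mann-Whitney statistics, were given by the Universal PBM Analysis Suite to ungapped eight-base words pooled with their reverse complements after masliner normalisation.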
In the case of ATGGGTGA, the “PBM E-score” value was -0.0284. On to CTCTCTAC, for which the “PBM E-score” value was found to be 0.127. Take CCGGCGAA: the “PBM E-score” value is 0.203.

Consider CGGTCCCA, for which the “PBM E-score” value was -0.185. With AATCCGGG the figure was -0.0636; with ACCCTGTC, -0.194; with AGTAAGTA, 0.0942.

Turning to CGGCTACA, the “PBM E-score” value was -0.0379.

GCTTTTCA: the “PBM E-score” value was determined as 0.0738.

For the sequence AGGCACTC, the “PBM E-score” value was -0.197. As to CTCTCCCC, the “PBM E-score” value is -0.372. For CGTCACGA, the “PBM E-score” value came out at 0.152. With GTCACGTA the figure was 0.0623; with CTCGCGAG, 0.279; with AATGTTGT, 0.116. Turning to AATAGATA, the “PBM E-score” value was 0.109. AACACTAC: the “PBM E-score” value is 0.186. With CGGCACAG, the “PBM E-score” value was 0.00204.

Regarding GAGATTTA, the “PBM E-score” value is 0.00324. Consider GTCGTACA, for which the “PBM E-score” value turned out to be 0.0242.

As to ATGCGGAA, the “PBM E-score” value turned out to be 0.0705.

For CCACACGG, the “PBM E-score” value is -0.0545. As to AGAATCGC, the “PBM E-score” value was 0.148. For CACTATGC, the “PBM E-score” value was 0.0156. With AGCCGTGC, the “PBM E-score” value was -0.0286. To ACTTAATA belongs 0.186. Take ACGCCAAA: the “PBM E-score” value was determined as 0.00977. Turning to CAAAGCTA, the “PBM E-score” value was 0.0163.

Regarding CCGCGAAA, the “PBM E-score” value is 0.0147. With GGATTGAC the figure was 0.0285. As for AGAAGCCA, the “PBM E-score” value was 0.0458. On to ATGAGGAG, for which the “PBM E-score” value is -0.158. Consider CCCGTCAC, for which the “PBM E-score” value was -0.146. With ATCGATGC the figure was 0.184.

Take CCGACTAG: the “PBM E-score” value was -0.152. Consider AAATTTAT, for which the “PBM E-score” value stood at 0.171. To CTTAATGA belongs 0.00816. As for AGCGGCAT, the “PBM E-score” value came to 0.194.

With GACGATAA, the “PBM E-score” value is 0.212.

As for AGTATCAC, the “PBM E-score” value was 0.182. To GATCTTCC belongs -0.149. In the case of AATCACGG, the “PBM E-score” value came out at 0.248. For GTCCAGGA, the “PBM E-score” value was -0.0388. Turning to GCATTTCC, the “PBM E-score” value turned out to be 0.174. With TTCACCAA, the “PBM E-score” value was -0.00247. Take AAACTGCC: the “PBM E-score” value was -0.159. With CGTTCAGA the figure was -0.149; with AGTACAAA, -0.11. For CGGCGATA, the “PBM E-score” value came to 0.0896. Turning to CAACACTG, the “PBM E-score” value worked out at 0.0553. To CGCTACCC belongs -0.123; to CGATAACA, 0.0644; to ATGATGCA, 0.222.

For ATTGCATA, the “PBM E-score” value is 0.147. As to ACTGATAT, the “PBM E-score” value stood at 0.0751.

For the sequence AGCTAACC, the “PBM E-score” value was -0.157. Consider ACACAAAT, for which the “PBM E-score” value worked out at 0.196. For AAGCATGG, the “PBM E-score” value was -0.157. To CCGCAGAG belongs -0.283; to AACACGAG, 0.155. For the sequence ATATGCAC, the “PBM E-score” value stood at 0.0506. AGGTGGTC: the “PBM E-score” value was -0.192.

Take GTTACCCA: the “PBM E-score” value is -0.188.

In the case of GATCGGAC, the “PBM E-score” value came to 0.0634. In the case of AAGATTAC, the “PBM E-score” value amounted to 0.127.

As to ACCTGAGG, the “PBM E-score” value is -0.165. With GCGATAGA the figure was 0.0948. In the case of AAGTATCA, the “PBM E-score” value worked out at 0.11. Regarding ATCGTTGG, the “PBM E-score” value was found to be 0.0504. Consider CAAACCAA, for which the “PBM E-score” value stood at 0.185. ATATAGCA: the “PBM E-score” value is -0.0269. As for ACACGCGG, the “PBM E-score” value came to 0.0311. Take GCTACACC: the “PBM E-score” value is -0.0366. In the case of GCCTGGAA, the “PBM E-score” value was -0.0634. In the case of ACATGTAG, the “PBM E-score” value was determined as 0.23. As for GGTTACGA, the “PBM E-score” value was -0.112. In the case of ATGGGGTG, the “PBM E-score” value was -0.206. With CACTTTAC the figure was -0.00139; with ATTAAGGC, 0.111; with CGTCTAAC, -0.0296.

In the case of CTAATCAA, the “PBM E-score” value was found to be 0.238. With AGGACGCC, the “PBM E-score” value is 0.0115.

Take CAGCGAAA: the “PBM E-score” value is -0.0962. As to CCCTTTCA, the “PBM E-score” value was -0.213. To GTGGCCTA belongs -0.0869; to ATTACAAG, 0.0206. To CACGGGGA belongs -0.195. For GCTAATAC, the “PBM E-score” value stood at 0.152. With ACATTATA the figure was 0.0217. For CTCTTCCA, the “PBM E-score” value was -0.0682.

On to CCGTATCA, for which the “PBM E-score” value came to 0.0249. As to TTGATAAA, the “PBM E-score” value was 0.188. To ATAACGGG belongs -0.0177; to ATGAATCA, 0.0957.
